Data reported in doi:10.1101/2025.11.10.687648.
Results are given in words; binding and its absence hold for the method and conditions named. In cells and extracts the contact can be indirect. Some binding calls cover weakened binding; strength is not graded here.

Chains of the proteins cited; added tags and fusions are not shown.
UniProt P01106: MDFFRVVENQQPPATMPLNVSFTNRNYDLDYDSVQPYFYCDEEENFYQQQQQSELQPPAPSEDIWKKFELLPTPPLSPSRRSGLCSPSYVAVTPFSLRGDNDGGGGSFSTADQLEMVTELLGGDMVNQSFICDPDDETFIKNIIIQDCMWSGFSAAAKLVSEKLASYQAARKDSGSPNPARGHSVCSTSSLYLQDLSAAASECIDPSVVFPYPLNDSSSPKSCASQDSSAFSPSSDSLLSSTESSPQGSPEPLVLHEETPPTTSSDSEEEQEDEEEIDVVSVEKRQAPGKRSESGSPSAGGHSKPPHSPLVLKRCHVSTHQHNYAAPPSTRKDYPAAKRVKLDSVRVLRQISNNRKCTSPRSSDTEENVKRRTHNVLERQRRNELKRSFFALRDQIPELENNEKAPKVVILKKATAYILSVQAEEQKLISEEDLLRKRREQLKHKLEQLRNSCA
UniProt Q9UMN6: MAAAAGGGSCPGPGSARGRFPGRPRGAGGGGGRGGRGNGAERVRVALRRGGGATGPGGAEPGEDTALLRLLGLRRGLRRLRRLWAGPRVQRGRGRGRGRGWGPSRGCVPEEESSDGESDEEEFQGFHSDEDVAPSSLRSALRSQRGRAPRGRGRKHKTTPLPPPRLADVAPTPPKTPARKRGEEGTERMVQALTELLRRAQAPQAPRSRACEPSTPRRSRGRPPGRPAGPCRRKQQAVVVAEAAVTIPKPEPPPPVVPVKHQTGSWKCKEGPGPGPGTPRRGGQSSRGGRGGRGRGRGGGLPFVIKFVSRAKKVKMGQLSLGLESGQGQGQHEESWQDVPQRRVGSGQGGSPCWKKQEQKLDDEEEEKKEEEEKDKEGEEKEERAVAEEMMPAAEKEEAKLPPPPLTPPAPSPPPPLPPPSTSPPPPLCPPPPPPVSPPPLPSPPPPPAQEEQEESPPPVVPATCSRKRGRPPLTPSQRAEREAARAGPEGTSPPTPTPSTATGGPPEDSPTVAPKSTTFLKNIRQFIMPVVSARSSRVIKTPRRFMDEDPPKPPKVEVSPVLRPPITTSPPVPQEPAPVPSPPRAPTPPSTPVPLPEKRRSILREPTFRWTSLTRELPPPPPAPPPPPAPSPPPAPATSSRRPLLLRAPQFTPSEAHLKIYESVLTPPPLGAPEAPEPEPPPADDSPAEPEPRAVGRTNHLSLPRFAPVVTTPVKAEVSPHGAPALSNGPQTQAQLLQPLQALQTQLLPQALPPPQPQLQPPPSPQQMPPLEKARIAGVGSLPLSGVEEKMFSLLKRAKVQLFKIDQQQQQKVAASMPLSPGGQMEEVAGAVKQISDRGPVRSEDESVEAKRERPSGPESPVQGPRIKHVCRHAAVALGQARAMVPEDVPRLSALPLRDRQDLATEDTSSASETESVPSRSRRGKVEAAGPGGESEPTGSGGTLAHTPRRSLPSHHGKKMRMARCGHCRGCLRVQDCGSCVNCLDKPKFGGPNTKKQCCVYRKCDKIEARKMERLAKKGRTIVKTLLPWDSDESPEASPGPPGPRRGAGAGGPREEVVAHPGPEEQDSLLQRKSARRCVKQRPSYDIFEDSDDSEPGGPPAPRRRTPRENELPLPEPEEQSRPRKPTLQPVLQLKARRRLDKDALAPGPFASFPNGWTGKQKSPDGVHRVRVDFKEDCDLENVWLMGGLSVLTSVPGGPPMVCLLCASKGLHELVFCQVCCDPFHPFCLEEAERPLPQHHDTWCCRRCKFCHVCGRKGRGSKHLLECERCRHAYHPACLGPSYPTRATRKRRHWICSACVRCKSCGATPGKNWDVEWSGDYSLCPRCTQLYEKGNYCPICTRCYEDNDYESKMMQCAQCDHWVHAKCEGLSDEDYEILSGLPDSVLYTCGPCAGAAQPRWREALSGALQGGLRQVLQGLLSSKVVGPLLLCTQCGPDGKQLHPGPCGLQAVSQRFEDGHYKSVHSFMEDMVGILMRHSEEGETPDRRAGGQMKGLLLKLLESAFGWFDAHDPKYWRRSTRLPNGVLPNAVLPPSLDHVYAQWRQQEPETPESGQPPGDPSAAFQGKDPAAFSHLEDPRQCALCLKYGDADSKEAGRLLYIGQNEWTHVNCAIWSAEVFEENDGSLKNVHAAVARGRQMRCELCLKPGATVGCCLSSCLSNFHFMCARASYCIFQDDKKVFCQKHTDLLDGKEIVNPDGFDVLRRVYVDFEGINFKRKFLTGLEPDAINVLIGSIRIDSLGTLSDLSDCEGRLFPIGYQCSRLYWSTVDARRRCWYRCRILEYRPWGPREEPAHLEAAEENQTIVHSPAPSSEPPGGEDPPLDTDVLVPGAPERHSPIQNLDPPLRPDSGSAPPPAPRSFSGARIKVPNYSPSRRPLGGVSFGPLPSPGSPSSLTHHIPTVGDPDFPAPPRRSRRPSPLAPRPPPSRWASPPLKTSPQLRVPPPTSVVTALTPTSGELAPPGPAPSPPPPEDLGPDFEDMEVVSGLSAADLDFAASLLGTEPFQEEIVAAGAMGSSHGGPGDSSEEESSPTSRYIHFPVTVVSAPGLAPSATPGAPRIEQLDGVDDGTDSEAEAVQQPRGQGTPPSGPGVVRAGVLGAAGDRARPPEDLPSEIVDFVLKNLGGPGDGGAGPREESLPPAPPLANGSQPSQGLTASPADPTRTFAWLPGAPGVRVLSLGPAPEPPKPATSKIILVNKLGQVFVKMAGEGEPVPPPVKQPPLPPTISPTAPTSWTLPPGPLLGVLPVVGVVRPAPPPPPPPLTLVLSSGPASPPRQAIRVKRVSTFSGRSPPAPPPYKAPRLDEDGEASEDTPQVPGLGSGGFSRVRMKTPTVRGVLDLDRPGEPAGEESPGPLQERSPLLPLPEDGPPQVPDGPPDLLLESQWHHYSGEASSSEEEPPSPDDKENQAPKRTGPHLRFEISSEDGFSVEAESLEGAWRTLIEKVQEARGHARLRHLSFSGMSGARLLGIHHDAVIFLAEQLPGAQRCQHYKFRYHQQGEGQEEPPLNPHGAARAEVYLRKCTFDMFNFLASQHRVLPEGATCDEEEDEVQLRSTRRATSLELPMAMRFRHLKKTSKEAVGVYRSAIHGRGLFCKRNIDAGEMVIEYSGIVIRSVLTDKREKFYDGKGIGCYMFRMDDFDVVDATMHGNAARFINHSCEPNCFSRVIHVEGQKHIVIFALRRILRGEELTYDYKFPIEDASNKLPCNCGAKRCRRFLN

T1: Menin (human (endogenous in A673, CHLA10, TC32, U2OS)) (UniProt O00255)
T1 sequence: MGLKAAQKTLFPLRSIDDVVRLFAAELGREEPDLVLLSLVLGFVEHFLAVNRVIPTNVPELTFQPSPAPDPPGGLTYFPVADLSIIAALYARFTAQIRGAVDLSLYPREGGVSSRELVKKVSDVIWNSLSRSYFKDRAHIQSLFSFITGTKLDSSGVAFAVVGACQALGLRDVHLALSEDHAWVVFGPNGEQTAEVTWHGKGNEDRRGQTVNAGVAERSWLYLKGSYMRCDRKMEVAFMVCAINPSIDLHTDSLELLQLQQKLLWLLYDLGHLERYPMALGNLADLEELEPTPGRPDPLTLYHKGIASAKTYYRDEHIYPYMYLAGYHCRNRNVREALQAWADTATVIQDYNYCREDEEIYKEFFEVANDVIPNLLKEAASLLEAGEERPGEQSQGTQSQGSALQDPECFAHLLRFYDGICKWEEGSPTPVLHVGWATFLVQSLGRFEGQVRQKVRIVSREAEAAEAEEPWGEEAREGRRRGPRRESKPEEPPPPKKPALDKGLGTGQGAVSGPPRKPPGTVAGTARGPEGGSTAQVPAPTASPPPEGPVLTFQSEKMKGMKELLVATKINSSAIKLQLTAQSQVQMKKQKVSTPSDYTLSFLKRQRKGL


Assays:
[1] = target: MYC (human (endogenous in A673, CHLA10, TC32, U2OS)) (UniProt P01106); assay: co-IP
[2] = target: T1, Menin (human (endogenous in A673, CHLA10, TC32, U2OS)); assay: co-IP

binding [1]	binding [2]	Molecule
no binding	binds	MLL2 (KMT2B) (from UniProt Q9UMN6 1-2715)
–	binds	MYC (from UniProt P01106 1-454)
binds	–	Menin (protein, UniProt O00255 1-610) MGLKAAQKTLFPLRSIDDVVRLFAAELGREEPDLVLLSLVLGFVEHFLAVNRVIPTNVPELTFQPSPAPDPPGGLTYFPVADLSIIAALYARFTAQIRGAVDLSLYPREGGVSSRELVKKVSDVIWNSLSRSYFKDRAHIQSLFSFITGTKLDSSGVAFAVVGACQALGLRDVHLALSEDHAWVVFGPNGEQTAEVTWHGKGNEDRRGQTVNAGVAERSWLYLKGSYMRCDRKMEVAFMVCAINPSIDLHTDSLELLQLQQKLLWLLYDLGHLERYPMALGNLADLEELEPTPGRPDPLTLYHKGIASAKTYYRDEHIYPYMYLAGYHCRNRNVREALQAWADTATVIQDYNYCREDEEIYKEFFEVANDVIPNLLKEAASLLEAGEERPGEQSQGTQSQGSALQDPECFAHLLRFYDGICKWEEGSPTPVLHVGWATFLVQSLGRFEGQVRQKVRIVSREAEAAEAEEPWGEEAREGRRRGPRRESKPEEPPPPKKPALDKGLGTGQGAVSGPPRKPPGTVAGTARGPEGGSTAQVPAPTASPPPEGPVLTFQSEKMKGMKELLVATKINSSAIKLQLTAQSQVQMKKQKVSTPSDYTLSFLKRQRKGL
